The results in this text go back to patent US20240150377A1, “MODULATORS OF CYSTIC FIBROSIS TRANSMEMBRANE CONDUCTANCE REGULATOR” (VERTEX PHARMACEUTICALS INCORPORATED, priority 2020, published 2024).

The chains behind the UniProt entries cited, without tags or fusion partners. A line that says so, or that is headed by a name, gives the form on record, which may keep a tag or linker.
UniProt P13569, with tags, fused parts or gaps DEL508-508: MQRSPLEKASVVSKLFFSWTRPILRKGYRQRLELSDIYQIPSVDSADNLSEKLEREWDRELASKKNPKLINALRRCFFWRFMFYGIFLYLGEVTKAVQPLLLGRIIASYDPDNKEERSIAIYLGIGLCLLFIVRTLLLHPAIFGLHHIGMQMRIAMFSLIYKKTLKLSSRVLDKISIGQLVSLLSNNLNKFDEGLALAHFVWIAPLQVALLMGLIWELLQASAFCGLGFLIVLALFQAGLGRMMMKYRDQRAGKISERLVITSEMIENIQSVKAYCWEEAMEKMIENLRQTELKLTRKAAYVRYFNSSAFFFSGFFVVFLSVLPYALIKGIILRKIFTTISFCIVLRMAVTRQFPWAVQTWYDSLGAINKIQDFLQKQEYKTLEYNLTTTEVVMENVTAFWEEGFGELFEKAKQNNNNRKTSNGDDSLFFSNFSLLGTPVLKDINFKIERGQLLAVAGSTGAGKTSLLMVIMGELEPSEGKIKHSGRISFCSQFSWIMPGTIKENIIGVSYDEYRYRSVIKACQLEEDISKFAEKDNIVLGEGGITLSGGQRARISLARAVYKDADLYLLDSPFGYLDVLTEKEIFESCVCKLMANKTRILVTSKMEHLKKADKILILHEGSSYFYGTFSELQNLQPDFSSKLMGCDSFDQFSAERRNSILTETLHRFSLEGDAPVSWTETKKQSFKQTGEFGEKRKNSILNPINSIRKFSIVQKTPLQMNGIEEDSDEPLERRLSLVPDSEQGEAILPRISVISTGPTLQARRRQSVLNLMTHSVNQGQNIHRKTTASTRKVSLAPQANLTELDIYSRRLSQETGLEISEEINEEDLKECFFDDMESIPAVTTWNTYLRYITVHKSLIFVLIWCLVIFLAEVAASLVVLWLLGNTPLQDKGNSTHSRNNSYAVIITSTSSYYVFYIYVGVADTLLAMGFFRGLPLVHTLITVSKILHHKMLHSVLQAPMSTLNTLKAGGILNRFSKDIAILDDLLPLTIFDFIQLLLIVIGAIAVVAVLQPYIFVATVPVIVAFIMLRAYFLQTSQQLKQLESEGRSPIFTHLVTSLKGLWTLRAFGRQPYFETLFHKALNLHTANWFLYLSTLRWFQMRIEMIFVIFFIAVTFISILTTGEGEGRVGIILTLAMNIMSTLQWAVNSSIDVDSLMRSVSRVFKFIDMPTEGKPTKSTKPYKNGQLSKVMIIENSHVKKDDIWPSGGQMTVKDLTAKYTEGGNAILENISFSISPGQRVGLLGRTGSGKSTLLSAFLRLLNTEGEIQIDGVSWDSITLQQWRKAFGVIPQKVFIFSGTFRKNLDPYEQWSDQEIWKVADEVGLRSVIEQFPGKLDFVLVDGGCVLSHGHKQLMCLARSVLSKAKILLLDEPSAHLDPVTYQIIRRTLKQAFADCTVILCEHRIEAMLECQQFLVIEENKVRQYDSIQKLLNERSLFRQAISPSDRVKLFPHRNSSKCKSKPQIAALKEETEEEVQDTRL

The target in the test is CFTR (Homo sapiens, UniProt P13569, DEL508-508). Put plainly: HBE2 assay: Ussing chamber assay of CFTR-mediated short-circuit currents. The following applies: F508del/MF-HBE cells, 18-24 hours, 20% human serum; for HBE2 Activity at 3 μM (%): 3 μM corrector; for HBE2 Activity at 3 μM (%) / HBE2 Max activity (%): with 44 nM potentiator; for pEC50: read-out: HBE2 EC50, corrector at a range of concentrations with 44 nM potentiator.

Each structure is given as a SMILES string. pEC50: −log10 of the molar value. Structures were worked out from names or drawings and are uncertain.

As usually defined, the pEC50 is −log10 of the EC50, conventionally taken in molar units. As for `Cc1cccc(C)c1-c1cc2nc(n1)NS(=O)(=O)c1cccc(c1)C(=O)N(Cc1nccc(N3CC[C@H]3C)n1)[C@H](CCC(C)C)CO2`, the “HBE2 Activity at 3 μM (%)” value is reported as “+++ (+++ is >60+)”, the “HBE2 Max activity (%)” value is reported as “+++ (+++ is >60+)” and the pEC50 was greater than 6.00.

`COC[C@@H]1CCN1c1ccnc(CN2C(=O)c3cccc(c3)S(=O)(=O)Nc3nc(cc(-c4c(C)cccc4C)n3)OC[C@H]2CCC(C)C)n1`: the “HBE2 Activity at 3 μM (%)” value is “+++ (+++ is >60+)”, the “HBE2 Max activity (%)” value is reported as “+++ (+++ is >60+)” and the pEC50 was greater than 6.00.

On to `Cc1cccc(C)c1-c1cc2nc(n1)NS(=O)(=O)c1cccc(c1)C(=O)N(Cc1nccc(N3CCC[C@H]3C(C)C)n1)[C@H](CCC(C)C)CO2`, for which the “HBE2 Activity at 3 μM (%)” value is listed as “+++ (+++ is >60+)”, the “HBE2 Max activity (%)” value was “+++ (+++ is >60+)” and the pEC50 is 5.52 to 6.00.
